Reference: the supplement of paper PMC12819154, “High-throughput peptide-centric local stability assay extends protein–ligand identification to membrane proteins, tissues and bacteria” (Nature Structural & Molecular Biology, 2025)
The other results are listed elsewhere or left out. Most entries show no effect beyond the scatter of the controls.

Sequences of proteins named here, by UniProt entry; tags and fusion partners are left off. A change or cut given only in a name is not applied to a line headed by its entry.
UniProt Q3UQN2: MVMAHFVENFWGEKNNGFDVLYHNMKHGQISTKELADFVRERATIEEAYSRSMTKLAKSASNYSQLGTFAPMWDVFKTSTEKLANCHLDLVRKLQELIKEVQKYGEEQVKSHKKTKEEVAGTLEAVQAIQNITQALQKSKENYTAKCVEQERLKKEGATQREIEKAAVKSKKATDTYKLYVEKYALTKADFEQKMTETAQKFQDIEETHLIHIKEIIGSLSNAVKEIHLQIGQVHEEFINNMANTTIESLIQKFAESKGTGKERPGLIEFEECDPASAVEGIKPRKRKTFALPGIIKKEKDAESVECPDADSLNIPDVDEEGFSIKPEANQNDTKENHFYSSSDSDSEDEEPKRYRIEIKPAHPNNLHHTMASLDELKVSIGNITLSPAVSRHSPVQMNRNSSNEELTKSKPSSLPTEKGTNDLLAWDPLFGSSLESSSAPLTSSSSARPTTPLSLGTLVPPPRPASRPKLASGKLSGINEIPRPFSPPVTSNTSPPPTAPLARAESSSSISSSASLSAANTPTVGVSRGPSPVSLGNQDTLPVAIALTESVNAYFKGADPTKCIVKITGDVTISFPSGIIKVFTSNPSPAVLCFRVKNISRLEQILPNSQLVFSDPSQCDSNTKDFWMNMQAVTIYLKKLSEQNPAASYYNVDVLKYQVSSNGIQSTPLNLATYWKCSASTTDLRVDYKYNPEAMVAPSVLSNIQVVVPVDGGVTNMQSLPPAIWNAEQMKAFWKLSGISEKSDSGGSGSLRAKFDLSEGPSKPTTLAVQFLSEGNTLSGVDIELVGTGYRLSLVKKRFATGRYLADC
UniProt P98195: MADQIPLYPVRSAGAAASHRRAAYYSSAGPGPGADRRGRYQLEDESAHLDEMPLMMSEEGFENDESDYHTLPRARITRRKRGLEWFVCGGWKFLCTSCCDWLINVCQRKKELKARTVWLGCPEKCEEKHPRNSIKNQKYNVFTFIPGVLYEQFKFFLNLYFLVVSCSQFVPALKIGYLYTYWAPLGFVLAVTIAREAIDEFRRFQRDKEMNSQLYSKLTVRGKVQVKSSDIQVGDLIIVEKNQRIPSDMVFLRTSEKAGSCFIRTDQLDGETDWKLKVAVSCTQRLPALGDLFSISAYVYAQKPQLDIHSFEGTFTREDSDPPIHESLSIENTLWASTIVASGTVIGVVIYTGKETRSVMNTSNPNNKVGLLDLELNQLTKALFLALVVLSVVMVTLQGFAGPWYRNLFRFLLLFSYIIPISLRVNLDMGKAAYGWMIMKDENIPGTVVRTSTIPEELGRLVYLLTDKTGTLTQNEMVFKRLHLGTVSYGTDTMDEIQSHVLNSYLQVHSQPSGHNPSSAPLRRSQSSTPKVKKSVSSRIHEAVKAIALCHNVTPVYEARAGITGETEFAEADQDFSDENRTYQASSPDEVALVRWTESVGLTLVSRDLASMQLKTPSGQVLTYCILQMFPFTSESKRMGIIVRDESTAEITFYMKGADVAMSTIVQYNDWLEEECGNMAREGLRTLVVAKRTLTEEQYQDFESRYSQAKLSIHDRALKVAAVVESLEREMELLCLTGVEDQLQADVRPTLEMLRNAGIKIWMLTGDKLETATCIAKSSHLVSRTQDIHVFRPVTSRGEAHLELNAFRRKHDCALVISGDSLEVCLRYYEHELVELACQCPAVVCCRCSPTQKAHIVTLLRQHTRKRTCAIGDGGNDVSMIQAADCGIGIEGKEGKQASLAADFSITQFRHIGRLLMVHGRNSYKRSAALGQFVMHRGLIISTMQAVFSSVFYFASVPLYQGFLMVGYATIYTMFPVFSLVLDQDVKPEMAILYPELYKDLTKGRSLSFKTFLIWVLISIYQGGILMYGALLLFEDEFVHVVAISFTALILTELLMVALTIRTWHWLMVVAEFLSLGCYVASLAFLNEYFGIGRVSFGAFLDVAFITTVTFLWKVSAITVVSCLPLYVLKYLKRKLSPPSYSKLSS
UniProt Q06185: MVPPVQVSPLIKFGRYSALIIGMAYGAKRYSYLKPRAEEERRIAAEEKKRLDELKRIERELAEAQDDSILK
UniProt Q5ND28: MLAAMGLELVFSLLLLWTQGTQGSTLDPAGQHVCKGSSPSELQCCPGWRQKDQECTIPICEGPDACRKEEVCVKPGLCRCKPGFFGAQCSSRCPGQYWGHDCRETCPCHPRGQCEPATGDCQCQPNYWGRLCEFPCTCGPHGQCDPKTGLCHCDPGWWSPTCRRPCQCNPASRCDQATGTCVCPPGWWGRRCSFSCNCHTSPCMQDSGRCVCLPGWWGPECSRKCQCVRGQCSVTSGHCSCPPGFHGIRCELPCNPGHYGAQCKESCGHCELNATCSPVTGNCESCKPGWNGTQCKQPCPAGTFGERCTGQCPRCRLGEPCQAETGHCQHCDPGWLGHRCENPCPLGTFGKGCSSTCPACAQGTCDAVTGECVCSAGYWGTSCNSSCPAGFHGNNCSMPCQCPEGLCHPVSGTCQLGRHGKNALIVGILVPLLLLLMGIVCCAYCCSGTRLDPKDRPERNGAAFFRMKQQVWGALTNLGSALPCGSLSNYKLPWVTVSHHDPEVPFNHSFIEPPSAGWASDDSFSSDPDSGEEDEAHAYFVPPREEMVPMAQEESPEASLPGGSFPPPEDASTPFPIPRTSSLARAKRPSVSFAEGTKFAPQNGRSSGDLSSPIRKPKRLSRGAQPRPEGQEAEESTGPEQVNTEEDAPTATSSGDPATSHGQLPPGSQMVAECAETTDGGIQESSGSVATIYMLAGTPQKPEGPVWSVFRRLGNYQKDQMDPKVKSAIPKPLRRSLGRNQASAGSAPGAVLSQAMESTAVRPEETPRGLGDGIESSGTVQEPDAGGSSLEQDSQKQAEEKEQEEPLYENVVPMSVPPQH
UniProt Q3TH73: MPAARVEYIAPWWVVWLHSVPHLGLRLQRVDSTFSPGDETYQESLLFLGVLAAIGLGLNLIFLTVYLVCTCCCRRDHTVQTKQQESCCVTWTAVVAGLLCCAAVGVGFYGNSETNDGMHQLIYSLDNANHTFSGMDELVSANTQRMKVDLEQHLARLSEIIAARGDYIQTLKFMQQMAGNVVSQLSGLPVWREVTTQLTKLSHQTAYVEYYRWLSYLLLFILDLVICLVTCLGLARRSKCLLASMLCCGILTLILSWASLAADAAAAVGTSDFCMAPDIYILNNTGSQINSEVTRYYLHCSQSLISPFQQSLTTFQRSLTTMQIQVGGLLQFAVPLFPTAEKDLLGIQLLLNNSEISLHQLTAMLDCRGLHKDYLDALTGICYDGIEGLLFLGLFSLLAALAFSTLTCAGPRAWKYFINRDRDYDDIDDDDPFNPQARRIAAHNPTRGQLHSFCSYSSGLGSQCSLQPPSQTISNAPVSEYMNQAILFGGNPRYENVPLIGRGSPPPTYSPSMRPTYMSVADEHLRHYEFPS
UniProt Q3UN02: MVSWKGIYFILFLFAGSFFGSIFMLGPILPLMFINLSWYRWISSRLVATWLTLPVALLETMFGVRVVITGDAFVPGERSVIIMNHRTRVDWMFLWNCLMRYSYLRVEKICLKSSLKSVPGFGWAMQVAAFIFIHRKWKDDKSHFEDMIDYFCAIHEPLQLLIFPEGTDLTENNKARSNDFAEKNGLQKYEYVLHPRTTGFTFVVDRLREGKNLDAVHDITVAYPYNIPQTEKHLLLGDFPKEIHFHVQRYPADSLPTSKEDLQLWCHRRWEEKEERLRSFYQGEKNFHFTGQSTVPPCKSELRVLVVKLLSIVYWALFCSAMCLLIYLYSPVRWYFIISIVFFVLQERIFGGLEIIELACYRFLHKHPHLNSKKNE
UniProt Q3THK7: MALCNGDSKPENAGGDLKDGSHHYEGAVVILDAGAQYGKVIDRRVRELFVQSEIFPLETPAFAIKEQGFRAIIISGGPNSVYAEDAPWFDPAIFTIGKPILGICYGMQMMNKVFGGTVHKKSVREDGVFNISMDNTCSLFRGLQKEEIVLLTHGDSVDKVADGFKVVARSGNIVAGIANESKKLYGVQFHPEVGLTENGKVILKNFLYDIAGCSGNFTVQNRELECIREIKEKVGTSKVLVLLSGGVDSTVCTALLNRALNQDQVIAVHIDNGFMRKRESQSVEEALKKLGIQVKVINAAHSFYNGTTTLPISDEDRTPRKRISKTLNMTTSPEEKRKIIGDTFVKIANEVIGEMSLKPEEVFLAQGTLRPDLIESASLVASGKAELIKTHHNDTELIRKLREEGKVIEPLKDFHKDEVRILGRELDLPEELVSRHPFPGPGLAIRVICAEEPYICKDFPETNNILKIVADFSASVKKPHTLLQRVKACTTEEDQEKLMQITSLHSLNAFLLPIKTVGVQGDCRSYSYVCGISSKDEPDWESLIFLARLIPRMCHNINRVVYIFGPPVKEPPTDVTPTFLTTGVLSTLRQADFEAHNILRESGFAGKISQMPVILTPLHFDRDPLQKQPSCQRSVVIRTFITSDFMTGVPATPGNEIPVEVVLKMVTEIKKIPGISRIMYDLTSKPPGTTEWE
UniProt Q03160, whole entry: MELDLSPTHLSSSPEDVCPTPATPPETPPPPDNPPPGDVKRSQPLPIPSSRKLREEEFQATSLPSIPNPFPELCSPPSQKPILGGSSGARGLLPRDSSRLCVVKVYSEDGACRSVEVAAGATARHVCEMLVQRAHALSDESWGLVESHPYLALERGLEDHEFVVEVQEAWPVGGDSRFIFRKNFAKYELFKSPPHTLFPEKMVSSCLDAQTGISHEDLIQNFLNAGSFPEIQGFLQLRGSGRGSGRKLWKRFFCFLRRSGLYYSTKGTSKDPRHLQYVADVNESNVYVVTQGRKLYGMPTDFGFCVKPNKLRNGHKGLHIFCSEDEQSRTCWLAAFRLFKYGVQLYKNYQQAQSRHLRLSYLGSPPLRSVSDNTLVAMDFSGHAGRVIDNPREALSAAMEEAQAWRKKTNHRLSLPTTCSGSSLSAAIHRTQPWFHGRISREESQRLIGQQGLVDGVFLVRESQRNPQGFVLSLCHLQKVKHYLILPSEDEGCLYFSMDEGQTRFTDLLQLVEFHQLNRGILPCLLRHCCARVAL
UniProt Q3U9N9: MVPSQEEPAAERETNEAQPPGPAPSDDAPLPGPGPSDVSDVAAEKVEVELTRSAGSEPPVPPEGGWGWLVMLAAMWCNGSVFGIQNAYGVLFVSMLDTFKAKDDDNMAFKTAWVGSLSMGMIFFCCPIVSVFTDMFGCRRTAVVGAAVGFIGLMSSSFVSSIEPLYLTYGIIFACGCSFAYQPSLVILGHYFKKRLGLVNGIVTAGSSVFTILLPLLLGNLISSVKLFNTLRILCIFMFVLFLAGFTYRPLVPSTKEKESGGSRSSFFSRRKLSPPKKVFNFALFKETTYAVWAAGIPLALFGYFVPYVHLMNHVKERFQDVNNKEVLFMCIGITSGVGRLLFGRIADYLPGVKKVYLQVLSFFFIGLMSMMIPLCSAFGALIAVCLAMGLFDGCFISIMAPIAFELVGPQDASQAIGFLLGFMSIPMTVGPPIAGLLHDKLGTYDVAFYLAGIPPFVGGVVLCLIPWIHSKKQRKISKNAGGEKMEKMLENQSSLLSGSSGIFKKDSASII
UniProt P97792: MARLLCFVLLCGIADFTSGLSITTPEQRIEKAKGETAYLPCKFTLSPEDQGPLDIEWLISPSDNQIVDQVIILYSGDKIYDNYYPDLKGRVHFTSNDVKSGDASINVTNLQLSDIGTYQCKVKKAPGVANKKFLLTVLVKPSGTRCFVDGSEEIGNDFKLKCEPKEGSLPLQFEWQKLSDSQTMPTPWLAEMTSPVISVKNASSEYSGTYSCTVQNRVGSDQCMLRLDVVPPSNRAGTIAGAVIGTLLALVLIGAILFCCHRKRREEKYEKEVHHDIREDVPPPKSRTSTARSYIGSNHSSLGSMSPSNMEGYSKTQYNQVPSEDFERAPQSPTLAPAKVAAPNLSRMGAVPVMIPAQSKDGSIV
UniProt Q0VG49: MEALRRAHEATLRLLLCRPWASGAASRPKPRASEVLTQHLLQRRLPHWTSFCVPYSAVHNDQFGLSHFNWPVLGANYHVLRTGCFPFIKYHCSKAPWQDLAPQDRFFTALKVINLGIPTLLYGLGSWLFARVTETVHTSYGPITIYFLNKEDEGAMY
UniProt P99027, whole entry: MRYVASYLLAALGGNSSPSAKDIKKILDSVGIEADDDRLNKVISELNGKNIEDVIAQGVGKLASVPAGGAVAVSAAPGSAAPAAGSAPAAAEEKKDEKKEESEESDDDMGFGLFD
UniProt Q3TXX3: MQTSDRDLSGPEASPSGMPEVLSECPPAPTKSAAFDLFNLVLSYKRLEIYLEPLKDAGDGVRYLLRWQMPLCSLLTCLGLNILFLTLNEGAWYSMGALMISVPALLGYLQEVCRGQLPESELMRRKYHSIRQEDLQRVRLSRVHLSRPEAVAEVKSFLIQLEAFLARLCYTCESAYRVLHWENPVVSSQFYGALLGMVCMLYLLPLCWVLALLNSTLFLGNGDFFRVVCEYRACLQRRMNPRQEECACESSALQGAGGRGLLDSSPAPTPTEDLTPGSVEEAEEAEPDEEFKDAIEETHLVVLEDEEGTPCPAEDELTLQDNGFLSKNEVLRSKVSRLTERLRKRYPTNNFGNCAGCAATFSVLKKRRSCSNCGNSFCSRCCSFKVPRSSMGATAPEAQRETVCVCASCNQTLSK

Compound: CN[C@@H]1C[C@H]2O[C@@](C)([C@@H]1OC)n1c3ccccc3c3c4c(c5c6ccccc6n2c5c31)C(=O)NC4 [staurosporine]
Assay: log2 fold change of pooled soluble protein (PISA), ligand vs vehicle (log2 ratio); higher = more thermally stabilized
Conditions: ligand concentration: 20 uM; assay format: PISA pool 52.9/55.5/58.6 C

Row | Target | log2 fold change of pooled soluble protein
1 | UniProt Q01705 | 0.0834
2 | UniProt Q3U2V3 | -0.0405
3 | UniProt Q5FW57 | 0.12
4 | UniProt Q3UQN2 | -0.142
5 | UniProt P98195 | -0.00448
6 | UniProt Q06185 | -0.0627
7 | UniProt Q3UTJ2 | -0.133
8 | UniProt Q5PT54 | 0.0343
9 | UniProt Q3UQ44 | -0.106
10 | UniProt Q4PZA2 | -0.0498
11 | UniProt Q5ND28 | 0.223
12 | UniProt Q3TH73 | 0.0241
13 | UniProt Q04207 | -0.103
14 | UniProt Q3UN02 | -0.154
15 | UniProt Q3V3Q7 | 0.195
16 | UniProt Q5NBU8 | -0.183
17 | UniProt Q3TW96 | 0.0514
18 | UniProt Q3UIA2 | -0.106

Row | Target | log2 fold change of pooled soluble protein
19 | UniProt Q01339 | 0.0105
20 | UniProt P97863 | 0.0895
21 | UniProt Q5QR91 | 0.49
22 | UniProt Q0VBL3 | -0.146
23 | UniProt Q02357 | 0.00621
24 | UniProt Q3UIR3 | -0.149
25 | UniProt Q3TMH2 | -0.109
26 | UniProt Q3THK7 | -0.153
27 | UniProt Q4LDG0 | -0.0211
28 | UniProt Q03160 | -0.0756
29 | UniProt Q3U9N9 | 0.0559
30 | UniProt P98064 | -0.0794
31 | UniProt Q3UZP4 | 0.275
32 | UniProt P97792 | 0.0442
33 | UniProt Q0VG49 | -0.22
34 | UniProt Q3U0B3 | -0.04
35 | UniProt P99027 | -0.18
36 | UniProt Q3TXX3 | -0.00443

A second format for part of the listing above:
Row	Target	log2 fold change of pooled soluble protein
26	UniProt Q3THK7	-0.153
27	UniProt Q4LDG0	-0.0211
28	UniProt Q03160	-0.0756
29	UniProt Q3U9N9	0.0559
30	UniProt P98064	-0.0794
31	UniProt Q3UZP4	0.275
